This is one part of the list.

For this experiment, the target named is T1, OsSMF1 (Oryza sativa, UniProt Q6ZLB0 1-436).
T1 sequence: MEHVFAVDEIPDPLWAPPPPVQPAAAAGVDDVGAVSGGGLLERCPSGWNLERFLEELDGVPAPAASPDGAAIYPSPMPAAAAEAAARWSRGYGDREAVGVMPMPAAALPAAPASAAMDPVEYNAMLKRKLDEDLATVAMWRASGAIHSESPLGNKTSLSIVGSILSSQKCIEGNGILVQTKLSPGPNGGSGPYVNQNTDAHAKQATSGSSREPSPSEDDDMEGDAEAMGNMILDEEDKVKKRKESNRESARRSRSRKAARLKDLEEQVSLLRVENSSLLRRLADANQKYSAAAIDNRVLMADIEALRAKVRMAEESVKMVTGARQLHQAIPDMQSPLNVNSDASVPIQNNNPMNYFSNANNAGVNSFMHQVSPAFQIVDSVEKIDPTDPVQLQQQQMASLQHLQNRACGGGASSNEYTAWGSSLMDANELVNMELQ
The experiment can be described thus: protein-binding microarray (RPBM); PBS, 2% BSA, 51.3 ng/ul salmon testes DNA, 50 uM zinc acetate, 200 nM TF, 25 C, 1 h; high values mean tight binding. The note with it: protein: recombinant; tags: N-terminal polyhistidine and DsRed monomer fusion (pET32a); chain copies: 2; label: CyDye5-dUTP incorporated in the synthesized complementary strand; 3' TTTTT single-stranded linker to array surface; dsDNA, one strand shown. In short, it runs like this:
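Binding signal here means per-feature fluorescence intensity in arbitrary units. The values were read on an Axon 4000B scanner after a custom Agilent array, double-stranded by primer extension with Cy5-dUTP, was incubated with 200 nM protein at 25 °C for 1 h in PBS with 2% BSA, salmon testes DNA and 50 µM zinc acetate, then washed. The proteins were transcription factors with an N-terminal polyhistidine tag and DsRed, expressed in E. coli BL21-CodonPlus and purified on Ni–NTA.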
On to “TTTTCTAACCAGGCGATTGTGCCAGCCCAGCAGTACTACCCGGAGTCACCTAGTGCAG”, for which the binding signal was 3420 fluorescence intensity (a.u.).
The value for “ATACTAGACCATCTTCAGTCATAGGATCCCCATTTTAAAGCGGAGTCACCTAGTGCAG” was 26500 fluorescence intensity (a.u.).
The result for “TACCTCCGCGCGCGCCTTGTGTTCGACCCACGTCAACCCACGGAGTCACCTAGTGCAG” reads 5360 fluorescence intensity (a.u.); that for “AAGATCTCCCAGGCCTCGTGTTTTACGTCAACTGGTTGTACGGAGTCACCTAGTGCAG”, 3380 fluorescence intensity (a.u.); that for “GCCGATACATAAGAGATATCATCATGTCCTGTAGCATTTTCGGAGTCACCTAGTGCAG”, 3510 fluorescence intensity (a.u.).
The result for “CTCCATCGCGCGTCTGGATTCTGCGTGCCACGGACAAGTCCGGAGTCACCTAGTGCAG” reads 3690 fluorescence intensity (a.u.); that for “GTTCAGGCAGTCAGGCACTGCAGCGGCCTGTGATACGTGGCGGAGTCACCTAGTGCAG”, 4210 fluorescence intensity (a.u.); that for “CCAGTAGTGATCAACATGTACACCTCATACCATGTCCTTTCGGAGTCACCTAGTGCAG”, 6630 fluorescence intensity (a.u.).
For the sequence “GAGAAAGGGTGTTGACGTGGCATCCTGACATGTGGGGTCCCGGAGTCACCTAGTGCAG”, the binding signal is 15100 fluorescence intensity (a.u.).
For the sequence “ACACAGATTACGTGTAAATTGCGAGACAAATCTTTTAACCCGGAGTCACCTAGTGCAG”, the binding signal is 4290 fluorescence intensity (a.u.).
The value for “CCCGAAGCGGATTCGCGCACGGAAACCCACAGTCGATTCTCGGAGTCACCTAGTGCAG” was 3590 fluorescence intensity (a.u.).
The value for “TATATATATATATATATATATATATCGAAGCAAATTCCCACGGAGTCACCTAGTGCAG” was 3490 fluorescence intensity (a.u.); that for “TTTTACCATGAGGATCCCATGTGTTTCTTTTCCTTGATTTCGGAGTCACCTAGTGCAG” was 3230 fluorescence intensity (a.u.).
The result for “ATCGATCTATCGATCCGATTAATAGTGCCATGAAATATCTCGGAGTCACCTAGTGCAG” reads 22700 fluorescence intensity (a.u.); that for “TGAAGTTTATAGGTAGTAGCAAAGTCATCATCAATGTGTGCGGAGTCACCTAGTGCAG”, 4370 fluorescence intensity (a.u.); that for “GGCTGCTACGGCGTTGGCGCGCGGCTGCCAGCTAGGCACCCGGAGTCACCTAGTGCAG”, 4960 fluorescence intensity (a.u.).
Consider “AATATAGGGGTATCTTTTAAAATATTTTGTATATACTGAACGGAGTCACCTAGTGCAG”, for which the binding signal was 36500 fluorescence intensity (a.u.).
The result for “ACTGTCTGATATATTTTACATGACAACAAAGTTACAAGTACGGAGTCACCTAGTGCAG” reads 4140 fluorescence intensity (a.u.); that for “TTTGGGTGAAGTGTCACGTAGTCATGTTGCCTTGGCGTCACGGAGTCACCTAGTGCAG”, 3330 fluorescence intensity (a.u.).
The value for “CTATCATATGTCGACATCAGTGACGTCACTCAGGCAGTCACGGAGTCACCTAGTGCAG” was 13600 fluorescence intensity (a.u.); that for “CCGCCACTGGCGTGCCGGTGACATGCTTGGACTCATCCACCGGAGTCACCTAGTGCAG” was 4180 fluorescence intensity (a.u.).
The result for “GCGGCGGTGGGTGGCGGGGCAGCAGACGAGCAAGAAAGAGCGGAGTCACCTAGTGCAG” reads 3170 fluorescence intensity (a.u.); that for “GGTTCGTTCGTTCGCCGCTAGTTGCCACCTTCGCCGCGGCCGGAGTCACCTAGTGCAG”, 3320 fluorescence intensity (a.u.).
For “AGCAAAGTGAAGGGCAATGGGACACAGGGTGGCATGTGTTCGGAGTCACCTAGTGCAG”, the binding signal is 15600 fluorescence intensity (a.u.).
The value for “AATATCACGCTTATAAAGATGGCTACAATATAGAAGAGATCGGAGTCACCTAGTGCAG” was 26200 fluorescence intensity (a.u.); that for “GCCATTTCCCCACGTTGATGTTGACTGTTTACTGTTTAGACGGAGTCACCTAGTGCAG” was 3580 fluorescence intensity (a.u.).
Turning to “CATTCGTGACCGGCCGCCGCCCTCGCCTTCTCCGGCGTCGCGGAGTCACCTAGTGCAG”, the binding signal was 3300 fluorescence intensity (a.u.).
Regarding “CCCCTTCGTCGTCTTCGTCATCGTCTCCAACCTCCGATTTCGGAGTCACCTAGTGCAG”, the binding signal is 4640 fluorescence intensity (a.u.).
The result for “GACCCAAATGTCATAGAGACACGACGGTTCACATGTCATACGGAGTCACCTAGTGCAG” reads 3900 fluorescence intensity (a.u.); that for “GAGTATTTTACAGGGGTTTCATCGTGTCATTTGCCACCCGCGGAGTCACCTAGTGCAG”, 3160 fluorescence intensity (a.u.).
With “AAAACAAATCACAAATATGACGTCATAATTACCGGCTTTCCGGAGTCACCTAGTGCAG”, the binding signal was 20200 fluorescence intensity (a.u.).
The value for “ATTAGGAGTATCTTGCCAAGTGTCCAACTAGACATGGTCCCGGAGTCACCTAGTGCAG” was 4110 fluorescence intensity (a.u.).
The value for “TTTTCTGTTCTGCATGAGCCATGTGGATTTGGTTGTCTACCGGAGTCACCTAGTGCAG” was 4560 fluorescence intensity (a.u.); that for “GCGGACGCGGGAAGTTCCCCTCCGGTTCCCATGTCACCGGCGGAGTCACCTAGTGCAG” was 3240 fluorescence intensity (a.u.).
The result for “AAGGTTTGGGTTGAGATGGGAGTAGAAGGGAGTGAGGTGGCGGAGTCACCTAGTGCAG” reads 6950 fluorescence intensity (a.u.); that for “CATATGGTGTCTTGTAAATTTCCTTTTCCACGTACTAACACGGAGTCACCTAGTGCAG”, 3490 fluorescence intensity (a.u.); that for “AACTGTGCTTACATCAGGCATGTGAGTTTCTTTATTGGTTCGGAGTCACCTAGTGCAG”, 6220 fluorescence intensity (a.u.).
Regarding “CATGAAACGTCCACGTGGTGGTTAATTAATTTCGTGTGCGCGGAGTCACCTAGTGCAG”, the binding signal is 7080 fluorescence intensity (a.u.).
With “GCGGTTAATTATTGAACATCATGCGTAAGTCATGCAACTTCGGAGTCACCTAGTGCAG”, the binding signal was 3810 fluorescence intensity (a.u.).
In the case of “GCGCGAGGCTTCCACCGTGGACGCGCCTCCTGCCGATAAACGGAGTCACCTAGTGCAG”, the binding signal is 3460 fluorescence intensity (a.u.).
Take “GCATCCGTGCGCCTCGATTGTTGCATCCCAGATGCCACGTCGGAGTCACCTAGTGCAG”: the binding signal is 5610 fluorescence intensity (a.u.).
Consider “CGCCACGGGTGCCCGCGTCATCCCATCCCCTCGCGCGTCGCGGAGTCACCTAGTGCAG”, for which the binding signal is 5990 fluorescence intensity (a.u.).

These data come from paper PMC7819943, “Rice protein-binding microarrays: a tool to detect cis-acting elements near promoter regions in rice”.
